Results: article PMC10954485
No constants are given. Whether binding was seen depends on the method and setting. Binding seen in cells or lysates may run through a third protein. Some results given as binding are weak or reduced against the parent protein; the word gives no strength.

By UniProt entry, the sequences of proteins in these tests, tags left out. Where a name states a change or a piece, a line headed by the entry shows the natural chain unless it says otherwise. Chains listed by the source or under a name are the forms on record and can include a tag or linker. Residues count along the entry.
UniProt Q13586: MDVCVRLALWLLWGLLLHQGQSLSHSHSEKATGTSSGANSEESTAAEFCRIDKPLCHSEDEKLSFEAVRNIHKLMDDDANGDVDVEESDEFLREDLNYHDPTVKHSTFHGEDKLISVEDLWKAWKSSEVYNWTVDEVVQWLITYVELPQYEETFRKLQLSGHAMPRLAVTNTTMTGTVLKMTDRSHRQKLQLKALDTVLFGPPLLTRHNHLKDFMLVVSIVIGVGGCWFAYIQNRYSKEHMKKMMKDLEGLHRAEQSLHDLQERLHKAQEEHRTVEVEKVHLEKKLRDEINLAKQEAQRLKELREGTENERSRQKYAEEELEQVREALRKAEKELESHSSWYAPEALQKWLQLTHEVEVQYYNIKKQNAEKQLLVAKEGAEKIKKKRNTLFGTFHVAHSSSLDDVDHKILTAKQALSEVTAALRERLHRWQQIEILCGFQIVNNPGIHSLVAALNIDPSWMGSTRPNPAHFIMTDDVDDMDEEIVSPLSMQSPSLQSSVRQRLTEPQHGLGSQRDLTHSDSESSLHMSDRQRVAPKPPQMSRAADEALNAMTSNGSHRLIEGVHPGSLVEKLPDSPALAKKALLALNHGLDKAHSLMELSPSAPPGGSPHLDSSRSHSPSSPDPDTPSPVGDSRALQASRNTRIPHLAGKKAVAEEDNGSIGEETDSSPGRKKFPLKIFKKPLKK
STIM1-GFP (human STIM1, NP_003147.2): residues 23-685 of Q13586
STIM1(Δ551–685)-GFP: residues 23-550 of Q13586
STIM1(382AIAAAA387)-GFP (Q13586, form named): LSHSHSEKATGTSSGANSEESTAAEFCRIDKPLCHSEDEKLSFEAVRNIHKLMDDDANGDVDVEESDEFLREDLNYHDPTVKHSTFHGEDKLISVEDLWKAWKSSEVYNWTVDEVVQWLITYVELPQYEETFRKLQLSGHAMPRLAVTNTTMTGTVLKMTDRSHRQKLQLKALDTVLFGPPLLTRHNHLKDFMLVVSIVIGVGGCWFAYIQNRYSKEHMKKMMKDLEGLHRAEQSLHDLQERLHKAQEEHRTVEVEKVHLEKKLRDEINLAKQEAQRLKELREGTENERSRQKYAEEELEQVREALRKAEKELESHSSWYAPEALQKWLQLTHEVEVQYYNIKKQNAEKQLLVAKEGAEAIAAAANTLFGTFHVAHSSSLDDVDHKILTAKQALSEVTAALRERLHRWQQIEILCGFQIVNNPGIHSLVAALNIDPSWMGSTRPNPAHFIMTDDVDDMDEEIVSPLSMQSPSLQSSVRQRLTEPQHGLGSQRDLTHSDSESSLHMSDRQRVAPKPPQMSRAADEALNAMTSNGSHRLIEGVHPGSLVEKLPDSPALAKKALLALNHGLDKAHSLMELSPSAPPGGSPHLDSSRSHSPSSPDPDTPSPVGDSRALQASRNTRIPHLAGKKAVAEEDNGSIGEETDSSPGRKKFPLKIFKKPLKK
UniProt Q9NVI1: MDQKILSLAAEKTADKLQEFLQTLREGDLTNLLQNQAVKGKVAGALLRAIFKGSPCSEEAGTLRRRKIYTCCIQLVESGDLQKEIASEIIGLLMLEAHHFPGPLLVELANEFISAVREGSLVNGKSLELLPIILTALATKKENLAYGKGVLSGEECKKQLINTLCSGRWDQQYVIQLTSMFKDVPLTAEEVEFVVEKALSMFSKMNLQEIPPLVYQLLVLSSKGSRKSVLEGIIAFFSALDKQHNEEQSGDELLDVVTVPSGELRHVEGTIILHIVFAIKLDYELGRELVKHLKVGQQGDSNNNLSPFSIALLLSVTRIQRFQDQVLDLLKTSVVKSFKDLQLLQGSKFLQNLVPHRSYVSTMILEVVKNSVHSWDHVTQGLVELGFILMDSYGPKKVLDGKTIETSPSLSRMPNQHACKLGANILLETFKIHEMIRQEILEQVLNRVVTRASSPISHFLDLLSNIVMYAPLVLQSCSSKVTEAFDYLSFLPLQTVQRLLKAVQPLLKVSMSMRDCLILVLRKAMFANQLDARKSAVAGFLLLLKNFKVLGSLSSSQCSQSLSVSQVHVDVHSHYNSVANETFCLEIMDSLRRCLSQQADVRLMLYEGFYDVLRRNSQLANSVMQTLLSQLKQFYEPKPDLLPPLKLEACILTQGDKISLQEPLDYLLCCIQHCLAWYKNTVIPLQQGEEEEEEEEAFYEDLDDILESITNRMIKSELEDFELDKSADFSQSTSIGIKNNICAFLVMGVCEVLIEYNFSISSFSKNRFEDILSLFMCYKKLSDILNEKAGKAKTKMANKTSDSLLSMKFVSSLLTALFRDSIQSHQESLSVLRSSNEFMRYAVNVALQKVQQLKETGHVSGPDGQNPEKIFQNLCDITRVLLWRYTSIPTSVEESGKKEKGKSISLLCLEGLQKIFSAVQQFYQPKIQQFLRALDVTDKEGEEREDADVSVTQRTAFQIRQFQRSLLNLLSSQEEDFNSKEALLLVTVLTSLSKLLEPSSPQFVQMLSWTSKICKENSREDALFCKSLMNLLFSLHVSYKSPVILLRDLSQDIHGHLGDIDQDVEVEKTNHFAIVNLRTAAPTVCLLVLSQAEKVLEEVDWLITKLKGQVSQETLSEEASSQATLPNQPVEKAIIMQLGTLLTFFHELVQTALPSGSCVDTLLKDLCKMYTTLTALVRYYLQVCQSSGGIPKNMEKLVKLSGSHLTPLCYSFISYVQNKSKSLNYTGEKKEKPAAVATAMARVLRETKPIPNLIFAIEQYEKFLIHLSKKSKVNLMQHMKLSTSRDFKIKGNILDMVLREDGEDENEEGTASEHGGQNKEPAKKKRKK
UniProt Q9BXW9: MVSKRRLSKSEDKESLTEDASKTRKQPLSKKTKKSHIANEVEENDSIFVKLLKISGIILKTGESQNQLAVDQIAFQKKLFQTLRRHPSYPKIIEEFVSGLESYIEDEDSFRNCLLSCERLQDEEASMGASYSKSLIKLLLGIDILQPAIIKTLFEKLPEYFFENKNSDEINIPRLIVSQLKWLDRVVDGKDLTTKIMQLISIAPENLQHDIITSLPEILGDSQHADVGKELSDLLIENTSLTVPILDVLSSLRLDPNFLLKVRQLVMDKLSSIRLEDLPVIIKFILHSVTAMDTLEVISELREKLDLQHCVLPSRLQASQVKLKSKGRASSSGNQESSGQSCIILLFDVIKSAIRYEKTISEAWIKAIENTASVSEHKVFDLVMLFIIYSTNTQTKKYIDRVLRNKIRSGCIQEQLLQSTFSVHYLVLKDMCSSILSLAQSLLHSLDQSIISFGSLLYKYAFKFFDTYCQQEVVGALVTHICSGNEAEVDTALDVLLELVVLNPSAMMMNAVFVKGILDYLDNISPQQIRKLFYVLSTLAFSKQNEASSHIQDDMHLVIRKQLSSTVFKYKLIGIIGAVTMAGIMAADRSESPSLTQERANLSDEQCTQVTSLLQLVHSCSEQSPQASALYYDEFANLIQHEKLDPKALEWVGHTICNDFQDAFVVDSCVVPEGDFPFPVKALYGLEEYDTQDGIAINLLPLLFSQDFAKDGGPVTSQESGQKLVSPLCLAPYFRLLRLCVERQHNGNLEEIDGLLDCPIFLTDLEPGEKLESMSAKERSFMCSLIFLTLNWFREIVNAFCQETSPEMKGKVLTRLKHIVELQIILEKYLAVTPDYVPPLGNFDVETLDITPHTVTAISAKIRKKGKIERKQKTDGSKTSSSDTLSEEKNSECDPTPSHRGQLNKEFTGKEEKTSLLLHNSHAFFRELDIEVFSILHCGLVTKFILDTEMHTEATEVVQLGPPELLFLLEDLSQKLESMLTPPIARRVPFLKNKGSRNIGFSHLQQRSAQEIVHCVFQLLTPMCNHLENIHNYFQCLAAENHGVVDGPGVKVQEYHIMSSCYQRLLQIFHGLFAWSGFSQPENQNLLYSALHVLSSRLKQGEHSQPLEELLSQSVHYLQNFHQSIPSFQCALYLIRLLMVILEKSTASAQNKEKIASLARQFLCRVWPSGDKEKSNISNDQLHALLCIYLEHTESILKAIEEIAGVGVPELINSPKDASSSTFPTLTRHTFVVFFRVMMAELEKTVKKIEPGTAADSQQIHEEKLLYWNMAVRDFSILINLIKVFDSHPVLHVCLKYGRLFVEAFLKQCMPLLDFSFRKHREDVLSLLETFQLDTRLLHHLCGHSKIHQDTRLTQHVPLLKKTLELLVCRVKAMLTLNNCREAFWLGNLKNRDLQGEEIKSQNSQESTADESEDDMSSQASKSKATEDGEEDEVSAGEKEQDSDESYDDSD
UniProt Q92621: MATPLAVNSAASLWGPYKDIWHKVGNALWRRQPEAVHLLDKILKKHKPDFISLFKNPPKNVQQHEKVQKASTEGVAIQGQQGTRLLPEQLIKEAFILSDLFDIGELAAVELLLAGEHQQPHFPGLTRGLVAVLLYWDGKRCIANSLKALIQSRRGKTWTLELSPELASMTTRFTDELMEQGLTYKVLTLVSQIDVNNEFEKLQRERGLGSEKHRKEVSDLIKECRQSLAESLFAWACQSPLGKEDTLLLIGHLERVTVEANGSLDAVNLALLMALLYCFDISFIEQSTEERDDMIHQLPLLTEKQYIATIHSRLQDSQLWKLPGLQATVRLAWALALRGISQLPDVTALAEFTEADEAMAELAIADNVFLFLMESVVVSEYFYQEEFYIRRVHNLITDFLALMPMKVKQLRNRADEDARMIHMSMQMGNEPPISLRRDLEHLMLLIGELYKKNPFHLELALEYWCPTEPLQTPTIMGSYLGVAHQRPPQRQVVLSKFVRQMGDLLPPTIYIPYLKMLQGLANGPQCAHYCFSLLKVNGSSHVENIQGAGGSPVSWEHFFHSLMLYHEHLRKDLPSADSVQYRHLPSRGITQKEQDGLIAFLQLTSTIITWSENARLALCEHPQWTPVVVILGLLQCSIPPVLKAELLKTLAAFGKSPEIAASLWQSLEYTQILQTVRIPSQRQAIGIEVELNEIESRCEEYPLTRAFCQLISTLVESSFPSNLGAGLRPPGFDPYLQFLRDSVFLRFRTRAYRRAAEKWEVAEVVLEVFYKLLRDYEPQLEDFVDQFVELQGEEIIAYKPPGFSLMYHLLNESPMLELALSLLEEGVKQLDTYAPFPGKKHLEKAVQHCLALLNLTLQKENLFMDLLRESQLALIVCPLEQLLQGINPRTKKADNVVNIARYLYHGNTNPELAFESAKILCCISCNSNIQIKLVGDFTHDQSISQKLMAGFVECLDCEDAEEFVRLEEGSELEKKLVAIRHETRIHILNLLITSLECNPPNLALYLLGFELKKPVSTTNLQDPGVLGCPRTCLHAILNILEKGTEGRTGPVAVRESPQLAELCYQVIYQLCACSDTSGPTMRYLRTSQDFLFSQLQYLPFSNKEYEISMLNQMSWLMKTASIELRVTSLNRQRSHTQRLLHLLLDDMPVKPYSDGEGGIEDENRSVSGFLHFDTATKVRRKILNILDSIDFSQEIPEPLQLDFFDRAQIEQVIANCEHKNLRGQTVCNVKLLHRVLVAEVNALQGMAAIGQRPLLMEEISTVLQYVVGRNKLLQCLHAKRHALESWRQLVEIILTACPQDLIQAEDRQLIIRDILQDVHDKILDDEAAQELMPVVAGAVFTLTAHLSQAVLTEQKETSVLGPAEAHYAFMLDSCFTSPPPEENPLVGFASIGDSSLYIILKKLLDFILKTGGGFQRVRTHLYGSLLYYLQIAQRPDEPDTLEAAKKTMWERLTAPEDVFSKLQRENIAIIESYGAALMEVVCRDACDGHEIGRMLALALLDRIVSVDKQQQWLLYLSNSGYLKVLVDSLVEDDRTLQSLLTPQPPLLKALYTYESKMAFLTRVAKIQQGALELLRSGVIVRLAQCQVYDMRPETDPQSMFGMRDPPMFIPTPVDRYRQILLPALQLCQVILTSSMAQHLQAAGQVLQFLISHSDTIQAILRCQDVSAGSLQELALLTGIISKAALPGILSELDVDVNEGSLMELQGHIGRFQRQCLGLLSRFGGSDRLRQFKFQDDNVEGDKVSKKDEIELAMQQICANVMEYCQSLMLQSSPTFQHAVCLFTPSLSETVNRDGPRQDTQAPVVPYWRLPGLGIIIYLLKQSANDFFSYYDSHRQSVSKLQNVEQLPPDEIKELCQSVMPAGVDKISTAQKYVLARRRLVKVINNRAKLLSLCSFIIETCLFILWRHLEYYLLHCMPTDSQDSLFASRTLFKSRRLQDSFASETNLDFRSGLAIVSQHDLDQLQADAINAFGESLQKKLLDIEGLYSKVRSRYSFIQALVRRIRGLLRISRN

How the values were obtained:
[1] = biological target: STIM1-GFP (human STIM1, NP_003147.2) (human) (UniProt Q13586); experiment: co-IP; GFP-tagged STIM1 pulled down with GFP-Trap beads from 1 mg whole cell lysate of STIM1-KO HEK293 cells (for XPO1: 0.25 mg nuclear lysate), co-precipitated endogenous proteins by immunoblot; GFP only as negative control
[2] = biological target: endogenous STIM1 (human (endogenous in HEK293)) (UniProt Q13586); experiment: proximity ligation; Duolink PLA in methanol-fixed HEK293 cells, rabbit anti-STIM1 with a mouse antibody against the partner, endogenous proteins; single antibodies as negative controls
[3] = biological target: endogenous STIM1 (human (endogenous in HEK293)) (UniProt Q13586); experiment: co-IP; endogenous STIM1 immunoprecipitated with anti-STIM1 antibody and Dynabeads Protein A from 2.5 mg HEK293 whole cell lysate (10 mM NaPO4 pH 7.0, 140 mM NaCl, 0.05% Triton X-100, overnight at 4°C), immunoblot; normal rabbit IgG as control
[4] = biological target: STIM1(Δ551–685)-GFP (human) (UniProt Q13586); experiment: proximity ligation; Duolink PLA in methanol-fixed cells expressing GFP-tagged STIM1 variants, rabbit anti-FANCD2 and sheep anti-GFP, red dots per nucleus
[5] = biological target: STIM1-GFP (human STIM1, NP_003147.2) (human) (UniProt Q13586); experiment: as above
[6] = biological target: STIM1(382AIAAAA387)-GFP (human) (UniProt Q13586); experiment: as above

| Substance | binding [1] | binding [2] | binding [3] | binding [4] | binding [5] | binding [6] |
| --- | --- | --- | --- | --- | --- | --- |
| FANCI (from UniProt Q9NVI1 1-1328) | binds | binds | binds |  |  |  |
| Fanconi anemia (FA) protein FANCD2 (from UniProt Q9BXW9 1-1451) | binds | binds | binds | binds | binds | binds |
| nuclear pore complex protein NUP205 (from UniProt Q92621 1-2012) | binds | binds | binds |  |  |  |
| KPNB1 (from UniProt Q14974 1-876) | binds weakly |  |  |  |  |  |

Second part, the substance after the results:

| binding [1] | binding [2] | binding [3] | binding [4] | binding [5] | binding [6] | Substance |
| --- | --- | --- | --- | --- | --- | --- |
| binds |  |  |  |  |  | TELO2 (from UniProt Q9Y4R8 1-837) |
| binds |  |  |  |  |  | XPO1 (from UniProt O14980 1-1071) |
| binds | binds |  |  |  |  | IPO8 (from UniProt O15397 1-1037) |
